Data from the supplement of paper PMC10849652.
This is one part of the list.

By UniProt entry, the sequences of proteins in these tests, tags left out. Where a name states a change or a piece, a line headed by the entry shows the natural chain unless it says otherwise.
UniProt O43852: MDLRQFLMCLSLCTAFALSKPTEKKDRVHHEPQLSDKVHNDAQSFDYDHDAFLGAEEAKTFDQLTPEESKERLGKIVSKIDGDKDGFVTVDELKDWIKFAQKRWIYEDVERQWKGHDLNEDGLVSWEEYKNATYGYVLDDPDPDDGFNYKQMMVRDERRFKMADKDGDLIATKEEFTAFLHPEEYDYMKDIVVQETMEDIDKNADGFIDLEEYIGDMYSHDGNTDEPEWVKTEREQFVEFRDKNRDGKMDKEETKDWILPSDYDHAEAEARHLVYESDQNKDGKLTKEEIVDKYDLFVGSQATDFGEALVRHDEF
UniProt P0C0L4: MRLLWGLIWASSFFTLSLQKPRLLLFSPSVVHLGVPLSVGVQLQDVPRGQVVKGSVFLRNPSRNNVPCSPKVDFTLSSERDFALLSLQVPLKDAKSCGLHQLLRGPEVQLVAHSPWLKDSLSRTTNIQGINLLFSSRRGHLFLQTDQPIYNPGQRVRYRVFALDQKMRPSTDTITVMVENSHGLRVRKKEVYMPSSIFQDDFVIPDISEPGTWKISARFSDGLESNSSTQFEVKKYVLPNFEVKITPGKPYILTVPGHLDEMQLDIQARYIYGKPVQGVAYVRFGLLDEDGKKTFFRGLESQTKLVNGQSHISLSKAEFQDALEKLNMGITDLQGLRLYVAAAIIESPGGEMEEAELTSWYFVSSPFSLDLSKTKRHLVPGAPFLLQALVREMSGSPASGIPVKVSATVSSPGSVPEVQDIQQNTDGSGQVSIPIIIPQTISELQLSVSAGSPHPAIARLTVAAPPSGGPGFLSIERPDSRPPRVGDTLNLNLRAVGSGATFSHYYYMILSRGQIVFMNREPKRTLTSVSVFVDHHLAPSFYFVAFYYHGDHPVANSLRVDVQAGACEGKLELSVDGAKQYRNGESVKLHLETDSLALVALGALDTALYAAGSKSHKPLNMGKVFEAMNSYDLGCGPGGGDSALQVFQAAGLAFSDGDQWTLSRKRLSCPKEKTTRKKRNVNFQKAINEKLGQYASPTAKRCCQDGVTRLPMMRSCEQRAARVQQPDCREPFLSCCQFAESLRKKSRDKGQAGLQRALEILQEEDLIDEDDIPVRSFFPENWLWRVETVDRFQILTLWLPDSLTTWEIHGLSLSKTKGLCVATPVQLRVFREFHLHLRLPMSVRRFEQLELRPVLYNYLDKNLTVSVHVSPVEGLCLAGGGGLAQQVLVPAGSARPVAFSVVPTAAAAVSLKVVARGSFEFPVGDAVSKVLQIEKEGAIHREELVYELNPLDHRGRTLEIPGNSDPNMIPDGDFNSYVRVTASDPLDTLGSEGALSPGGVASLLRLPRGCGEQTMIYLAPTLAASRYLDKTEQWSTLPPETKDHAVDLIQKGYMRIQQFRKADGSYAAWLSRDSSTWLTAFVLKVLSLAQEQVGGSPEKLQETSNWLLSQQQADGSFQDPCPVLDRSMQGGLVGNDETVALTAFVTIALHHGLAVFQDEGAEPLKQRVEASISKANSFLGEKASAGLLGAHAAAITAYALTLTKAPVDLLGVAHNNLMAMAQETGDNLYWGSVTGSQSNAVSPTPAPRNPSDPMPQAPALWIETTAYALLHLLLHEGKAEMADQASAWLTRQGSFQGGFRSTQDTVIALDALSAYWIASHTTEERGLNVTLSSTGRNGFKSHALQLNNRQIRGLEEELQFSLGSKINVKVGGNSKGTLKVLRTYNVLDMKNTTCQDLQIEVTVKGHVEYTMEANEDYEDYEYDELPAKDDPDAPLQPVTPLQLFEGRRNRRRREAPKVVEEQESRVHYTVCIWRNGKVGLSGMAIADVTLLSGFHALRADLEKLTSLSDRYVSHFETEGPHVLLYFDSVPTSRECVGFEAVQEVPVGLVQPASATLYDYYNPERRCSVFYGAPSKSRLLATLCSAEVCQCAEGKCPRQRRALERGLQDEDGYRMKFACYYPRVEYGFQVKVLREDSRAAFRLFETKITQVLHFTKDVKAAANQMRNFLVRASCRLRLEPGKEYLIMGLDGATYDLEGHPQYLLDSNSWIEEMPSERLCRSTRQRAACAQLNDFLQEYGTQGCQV
UniProt Q5T5Y3: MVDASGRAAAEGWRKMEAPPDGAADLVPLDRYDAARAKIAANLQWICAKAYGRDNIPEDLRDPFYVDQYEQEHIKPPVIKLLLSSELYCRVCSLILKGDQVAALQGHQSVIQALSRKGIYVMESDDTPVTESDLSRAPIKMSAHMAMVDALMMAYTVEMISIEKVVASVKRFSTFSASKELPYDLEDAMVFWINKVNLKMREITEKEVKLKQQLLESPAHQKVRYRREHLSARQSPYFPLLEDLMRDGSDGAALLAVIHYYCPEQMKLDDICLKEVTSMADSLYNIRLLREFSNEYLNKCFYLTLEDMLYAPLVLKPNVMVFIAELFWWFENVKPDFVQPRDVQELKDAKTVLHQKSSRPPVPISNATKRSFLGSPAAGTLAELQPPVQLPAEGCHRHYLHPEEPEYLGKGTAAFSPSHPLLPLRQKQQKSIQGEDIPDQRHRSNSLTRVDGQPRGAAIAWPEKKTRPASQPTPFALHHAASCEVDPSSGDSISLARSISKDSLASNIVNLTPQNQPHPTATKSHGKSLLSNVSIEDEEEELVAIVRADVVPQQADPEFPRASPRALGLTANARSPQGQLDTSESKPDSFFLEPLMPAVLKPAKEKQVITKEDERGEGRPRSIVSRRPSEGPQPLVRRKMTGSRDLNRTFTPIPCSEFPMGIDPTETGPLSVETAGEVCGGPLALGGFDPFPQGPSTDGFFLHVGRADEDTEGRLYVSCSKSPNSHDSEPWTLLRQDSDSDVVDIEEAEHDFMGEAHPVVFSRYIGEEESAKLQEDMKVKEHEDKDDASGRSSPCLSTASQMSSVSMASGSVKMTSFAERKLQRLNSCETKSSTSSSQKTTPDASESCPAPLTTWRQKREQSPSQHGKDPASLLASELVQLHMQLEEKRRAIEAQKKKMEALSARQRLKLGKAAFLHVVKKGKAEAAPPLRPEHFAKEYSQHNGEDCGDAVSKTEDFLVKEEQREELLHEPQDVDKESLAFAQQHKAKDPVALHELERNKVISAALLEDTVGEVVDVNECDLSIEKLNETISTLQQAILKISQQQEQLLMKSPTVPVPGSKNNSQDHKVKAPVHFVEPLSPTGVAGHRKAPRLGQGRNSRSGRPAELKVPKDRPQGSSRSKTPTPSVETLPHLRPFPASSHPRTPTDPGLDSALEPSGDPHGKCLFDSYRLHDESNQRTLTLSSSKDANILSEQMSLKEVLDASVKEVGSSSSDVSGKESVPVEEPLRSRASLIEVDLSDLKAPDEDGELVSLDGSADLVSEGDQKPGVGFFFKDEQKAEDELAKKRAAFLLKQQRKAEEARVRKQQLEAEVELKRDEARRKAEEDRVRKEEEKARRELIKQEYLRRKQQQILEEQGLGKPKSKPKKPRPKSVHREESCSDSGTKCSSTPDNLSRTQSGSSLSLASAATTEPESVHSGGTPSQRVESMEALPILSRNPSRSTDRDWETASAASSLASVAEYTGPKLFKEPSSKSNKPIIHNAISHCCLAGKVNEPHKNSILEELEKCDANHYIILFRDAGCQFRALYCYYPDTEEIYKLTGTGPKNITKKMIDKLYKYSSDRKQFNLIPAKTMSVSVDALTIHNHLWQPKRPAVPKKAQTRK
UniProt Q96N11, whole entry, looked up: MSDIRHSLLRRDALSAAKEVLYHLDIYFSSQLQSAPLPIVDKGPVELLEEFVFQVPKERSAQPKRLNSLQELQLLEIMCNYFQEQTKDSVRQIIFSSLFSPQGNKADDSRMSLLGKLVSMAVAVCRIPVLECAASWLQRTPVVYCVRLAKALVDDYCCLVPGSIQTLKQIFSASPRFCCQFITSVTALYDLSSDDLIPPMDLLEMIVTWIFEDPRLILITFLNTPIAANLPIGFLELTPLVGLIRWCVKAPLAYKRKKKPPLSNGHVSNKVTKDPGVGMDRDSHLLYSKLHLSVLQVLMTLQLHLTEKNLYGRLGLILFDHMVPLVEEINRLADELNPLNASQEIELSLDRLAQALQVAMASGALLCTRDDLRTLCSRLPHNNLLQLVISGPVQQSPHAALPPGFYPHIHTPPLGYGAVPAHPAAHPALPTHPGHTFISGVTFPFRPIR
UniProt A6NDU8: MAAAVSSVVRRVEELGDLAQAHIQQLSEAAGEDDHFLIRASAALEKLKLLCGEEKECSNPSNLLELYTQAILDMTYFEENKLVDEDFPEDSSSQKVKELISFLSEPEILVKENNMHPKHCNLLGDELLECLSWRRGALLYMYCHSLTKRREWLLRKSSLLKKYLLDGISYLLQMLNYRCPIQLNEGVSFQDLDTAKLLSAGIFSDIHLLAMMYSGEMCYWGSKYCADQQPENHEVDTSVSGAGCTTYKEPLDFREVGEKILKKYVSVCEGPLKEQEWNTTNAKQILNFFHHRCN
UniProt P07384: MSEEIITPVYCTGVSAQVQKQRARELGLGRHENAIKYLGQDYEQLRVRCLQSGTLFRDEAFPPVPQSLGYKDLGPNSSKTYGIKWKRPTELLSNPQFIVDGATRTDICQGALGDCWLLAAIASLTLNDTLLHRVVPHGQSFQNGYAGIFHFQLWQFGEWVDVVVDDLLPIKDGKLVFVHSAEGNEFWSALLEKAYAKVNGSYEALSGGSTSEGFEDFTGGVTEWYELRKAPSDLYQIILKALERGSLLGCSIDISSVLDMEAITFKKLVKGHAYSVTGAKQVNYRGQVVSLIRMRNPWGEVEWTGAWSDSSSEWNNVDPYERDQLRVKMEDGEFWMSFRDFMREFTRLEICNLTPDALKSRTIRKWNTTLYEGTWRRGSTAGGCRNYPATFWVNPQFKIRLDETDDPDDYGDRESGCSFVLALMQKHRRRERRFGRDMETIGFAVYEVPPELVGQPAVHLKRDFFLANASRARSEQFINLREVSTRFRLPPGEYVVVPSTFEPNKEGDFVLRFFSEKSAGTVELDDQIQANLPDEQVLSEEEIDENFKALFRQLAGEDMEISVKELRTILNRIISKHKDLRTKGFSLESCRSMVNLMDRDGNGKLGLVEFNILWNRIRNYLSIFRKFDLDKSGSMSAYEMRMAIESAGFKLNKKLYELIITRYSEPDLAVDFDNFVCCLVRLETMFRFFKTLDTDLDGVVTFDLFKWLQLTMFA
UniProt Q07021: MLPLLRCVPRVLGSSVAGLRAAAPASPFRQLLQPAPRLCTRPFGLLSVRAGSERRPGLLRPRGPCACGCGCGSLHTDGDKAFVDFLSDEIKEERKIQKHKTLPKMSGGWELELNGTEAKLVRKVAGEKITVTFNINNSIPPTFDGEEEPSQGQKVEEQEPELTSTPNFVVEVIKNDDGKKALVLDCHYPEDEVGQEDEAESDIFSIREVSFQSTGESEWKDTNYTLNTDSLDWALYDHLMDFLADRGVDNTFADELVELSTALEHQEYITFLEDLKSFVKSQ
UniProt Q96B23: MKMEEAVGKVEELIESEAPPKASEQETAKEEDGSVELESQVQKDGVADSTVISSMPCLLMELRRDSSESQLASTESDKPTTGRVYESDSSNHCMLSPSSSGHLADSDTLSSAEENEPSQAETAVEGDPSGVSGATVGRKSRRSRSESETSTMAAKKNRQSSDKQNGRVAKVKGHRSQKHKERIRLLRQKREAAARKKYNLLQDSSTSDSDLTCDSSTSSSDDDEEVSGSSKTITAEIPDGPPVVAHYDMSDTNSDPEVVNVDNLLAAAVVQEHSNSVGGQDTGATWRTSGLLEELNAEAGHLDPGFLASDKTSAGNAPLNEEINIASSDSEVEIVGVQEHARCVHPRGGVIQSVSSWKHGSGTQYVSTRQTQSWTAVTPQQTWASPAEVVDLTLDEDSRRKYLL
UniProt Q9H8G2: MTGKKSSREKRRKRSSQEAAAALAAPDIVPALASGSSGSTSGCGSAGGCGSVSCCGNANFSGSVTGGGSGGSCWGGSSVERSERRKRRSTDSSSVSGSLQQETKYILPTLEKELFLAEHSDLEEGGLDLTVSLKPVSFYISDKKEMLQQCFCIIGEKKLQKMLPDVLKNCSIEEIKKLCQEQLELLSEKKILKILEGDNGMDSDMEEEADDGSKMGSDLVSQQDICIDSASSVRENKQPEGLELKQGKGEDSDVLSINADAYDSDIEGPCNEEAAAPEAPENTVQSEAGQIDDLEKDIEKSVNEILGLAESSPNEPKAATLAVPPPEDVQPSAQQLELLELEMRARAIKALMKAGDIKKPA
UniProt O95873: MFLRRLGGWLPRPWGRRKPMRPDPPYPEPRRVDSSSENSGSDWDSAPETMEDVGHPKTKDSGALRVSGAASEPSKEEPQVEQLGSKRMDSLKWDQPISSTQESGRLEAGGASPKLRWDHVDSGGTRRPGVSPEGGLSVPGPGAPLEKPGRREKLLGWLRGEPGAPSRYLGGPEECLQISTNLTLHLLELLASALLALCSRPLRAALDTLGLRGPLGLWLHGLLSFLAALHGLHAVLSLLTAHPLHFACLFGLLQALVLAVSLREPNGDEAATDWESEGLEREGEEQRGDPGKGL

Assays:
Assay in all cases: log2 fold change, soluble protein after heating vs DMSO (PISA); higher = thermal stabilisation; K562 lysate, 10 uM; active = over 0.2 and 3.5 SD of the protein, either way, in both replicates (recomputed)
vemurafenib = compound: CCCS(=O)(=O)Nc1ccc(F)c(C(=O)c2c[nH]c3ncc(-c4ccc(Cl)cc4)cc23)c1F [vemurafenib]
How it was run: (§1)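 Quantification was by TMTpro 16plex LC-MS/MS with equalised channel sums, applied to the supernatant after 21,000xg for 90 min. Samples were crude K562 extract at 1 mg/mL protein in PBS pH 7.4 with 1 mM MgCl2, treated with 10 μM compound for 30 min, heated for 3 min across 48°C-58°C, pooled and brought to 0.5% NP-40 at 4°C. Values are log-two fold changes in thermal stability relative to solvent controls, from duplicates.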

[1] = compound: CCCS(=O)(=O)Nc1ccc(F)c(C(=O)c2c[nH]c3ncc(Cl)cc23)c1F
How it was run: as §1

barasertib = compound: CCN(CCCOc1ccc2c(Nc3cc(CC(=O)Nc4cccc(F)c4)[nH]n3)ncnc2c1)CCOP(=O)(O)O [barasertib]
How it was run: as §1

[2] = compound: CC[C@@H]1C(=O)N(C)c2cnc(Nc3ccc(C(=O)NC4CCN(C)CC4)cc3OC)nc2N1C1CCCC1
How it was run: as §1

volasertib = compound: CC[C@@H]1C(=O)N(C)c2cnc(Nc3ccc(C(=O)N[C@H]4CC[C@H](N5CCN(CC6CC6)CC5)CC4)cc3OC)nc2N1C(C)C [volasertib]
How it was run: as §1

[3] = compound: CCn1c(C(=O)N(C2CC2)C2CC2)cc2c3c(ncn3C)c(Nc3cc(C)n(C)n3)nc21
How it was run: as §1

[4] = compound: CCn1cc(-c2ccnc3[nH]c(-c4cccc(CN(C)C)c4)cc23)c(-c2ccc(NC(=O)N(C)C)cc2)n1
How it was run: as §1

[5] = compound: CN1CCC(CNc2ccc3ncc(-c4cccc(OC(F)(F)F)c4)n3n2)CC1
How it was run: as §1

saracatinib = compound: CN1CCN(CCOc2cc(OC3CCOCC3)c3c(Nc4c(Cl)ccc5c4OCO5)ncnc3c2)CC1 [saracatinib]
How it was run: as §1

sotrastaurin = compound: CN1CCN(c2nc(C3=C(c4c[nH]c5ccccc45)C(=O)NC3=O)c3ccccc3n2)CC1 [sotrastaurin]
How it was run: as §1

Measured: log2 fold change

CALU isoform 3 (UniProt O43852)
inactive: vemurafenib 0.003 | [1] -0.002 | barasertib -0.045 | [2] 0.053 | volasertib 0.03 | [3] -0.023 | [4] 0.069 | [5] 0.019 | saracatinib -0.003 | sotrastaurin -0.002

C1GALT1C1 (UniProt Q96EU7)
inactive: vemurafenib 0.022 | [1] 0.003 | barasertib -0.01 | [2] 0.044 | volasertib -0.046 | [3] -0.094 | [4] 0.038 | [5] -0.144 | saracatinib 0.042 | sotrastaurin -0.02

C4A (UniProt P0C0L4)
inactive: vemurafenib -0.205 | [1] 0.162 | barasertib 0.01 | [2] 0.066 | volasertib -0.096 | [3] -0.047 | [4] -0.037 | [5] 0.074 | saracatinib 0.053 | sotrastaurin -0.026

CAMSAP1 isoform 3 (UniProt Q5T5Y3)
inactive: vemurafenib 0.004 | [1] 0.029 | barasertib 0.006 | [2] 0.003 | volasertib 0.051 | [3] -0.031 | [4] 0.137 | [5] -0.03 | saracatinib 0.008 | sotrastaurin 0.014

C20orf27 isoform 2 (UniProt Q9GZN8)
inactive: vemurafenib 0.053 | [1] 0.018 | barasertib -0.041 | [2] 0.047 | volasertib -0.015 | [3] -0.002 | [4] 0.011 | [5] 0.039 | saracatinib 0.011 | sotrastaurin -0.074

C7orf26 (UniProt Q96N11)
inactive: vemurafenib 0.1 | [1] -0.027 | barasertib -0.137 | [2] -0.006 | volasertib 0 | [3] -0.019 | [4] -0.056 | [5] -0.035 | saracatinib 0.03 | sotrastaurin -0.07

Two entries picked at random from the list so far:
C20orf27 isoform 2 (UniProt Q9GZN8)
inactive: vemurafenib 0.053 | [1] 0.018 | barasertib -0.041 | [2] 0.047 | volasertib -0.015 | [3] -0.002 | [4] 0.011 | [5] 0.039 | saracatinib 0.011 | sotrastaurin -0.074

C1GALT1C1 (UniProt Q96EU7)
inactive: vemurafenib 0.022 | [1] 0.003 | barasertib -0.01 | [2] 0.044 | volasertib -0.046 | [3] -0.094 | [4] 0.038 | [5] -0.144 | saracatinib 0.042 | sotrastaurin -0.02

(cont.)

C5orf51 (UniProt A6NDU8)
inactive: vemurafenib -0.002 | [1] 0.009 | barasertib 0.046 | [2] -0.014 | volasertib -0.029 | [3] 0.053 | [4] 0.036 | [5] -0.137 | saracatinib 0.016 | sotrastaurin 0.036

CAPN1 (UniProt P07384)
inactive: vemurafenib 0.008 | [1] 0.001 | barasertib -0.028 | [2] 0.034 | volasertib 0.03 | [3] -0.011 | [4] 0.027 | [5] 0.006 | saracatinib -0.026 | sotrastaurin 0.023

C1QBP (UniProt Q07021)
inactive: vemurafenib 0.005 | [1] -0.001 | barasertib -0.015 | [2] 0.034 | volasertib 0.023 | [3] -0.056 | [4] 0.004 | [5] 0.002 | saracatinib -0.007 | sotrastaurin 0.003

C18orf25 (UniProt Q96B23)
inactive: vemurafenib -0.014 | [1] 0.014 | barasertib 0.004 | [2] 0.1 | volasertib -0.013 | [3] -0.059 | [4] -0.035 | [5] 0.015 | saracatinib -0.032 | sotrastaurin 0.009

CAAP1 (UniProt Q9H8G2)
inactive: vemurafenib -0.061 | [1] -0.021 | barasertib 0.005 | [2] 0.054 | volasertib -0.003 | [3] -0.026 | [4] -0.153 | [5] 0.124 | saracatinib -0.018 | sotrastaurin 0.082

CALCOCO2 isoform 4 (UniProt Q13137)
inactive: vemurafenib 0.018 | [1] 0.033 | barasertib 0.041 | [2] 0.025 | volasertib 0.01 | [3] -0.019 | [4] -0.073 | [5] 0.004 | saracatinib 0.012 | sotrastaurin -0.019

C6orf47 (UniProt O95873)
inactive: vemurafenib 0.048 | [1] -0.004 | barasertib 0.016 | [2] 0.044 | volasertib -0.015 | [3] -0.013 | [4] -0.269 | [5] 0.116 | saracatinib 0.037 | sotrastaurin 0.079

CALU isoform 4 (UniProt O43852)
inactive: vemurafenib 0.025 | [1] -0.057 | barasertib -0.01 | [2] -0.063 | volasertib -0.004 | [3] -0.041 | [4] -0.008 | [5] 0.061 | saracatinib -0.01 | sotrastaurin -0.027

BUB3 (UniProt O43684)
inactive: vemurafenib 0.03 | [1] -0.013 | barasertib -0.03 | [2] -0.043 | volasertib 0.026 | [3] -0.016 | [4] -0.015 | [5] 0.055 | saracatinib 0.023 | sotrastaurin 0.01
